Laboratory results as given in patent US20220267440A1.
Changes are numbered by the printed parent chain. Results are given in words; binding and its absence hold for the method and conditions named. Some results given as binding are weak or reduced against the parent protein; the word gives no strength.

By UniProt entry, the sequences of proteins in these tests, tags left out. Where a name states a change or a piece, a line headed by the entry shows the natural chain unless it says otherwise. Residues count along the entry.
UniProt Q08722: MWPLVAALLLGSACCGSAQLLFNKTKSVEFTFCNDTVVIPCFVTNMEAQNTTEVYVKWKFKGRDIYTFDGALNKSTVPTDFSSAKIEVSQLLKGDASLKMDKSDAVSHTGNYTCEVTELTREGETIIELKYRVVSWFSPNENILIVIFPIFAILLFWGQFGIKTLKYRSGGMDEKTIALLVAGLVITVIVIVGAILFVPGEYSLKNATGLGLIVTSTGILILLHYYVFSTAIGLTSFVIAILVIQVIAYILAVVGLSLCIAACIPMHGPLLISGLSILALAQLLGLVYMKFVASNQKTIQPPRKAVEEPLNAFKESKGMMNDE
native human CD47 expressed on the surface of the CCRF-CEM human tumor cell line: residues 19-323 of Q08722
recombinant human CD47 (Novoprotein cat no. C321, lot no. 0329689): residues 19-139 of Q08722

B1: anti-CD47 AlivaMab antibody 164 (antibody, IgG1, V domains shown)
VH: QVQLQESGPGLVKPSETLSLTCTVSGGSISSYYWSWIRQPPGKGLEWIGYVYYSGGTNYNPSLKSRVTISVDTSKNQFSLKLSSVTAADTAVYYCARKRGTFDYWGQGTLVTVSS
VL: DIQMTQSPSSVSASVGDRVTITCRASQGISSWLAWYQQKPGKAPKLLIYAASSLQSGVPSRFSGSGSGTDFTLTISSLQPEDFATYFCQQANSFPLTFGGGTKVEIK
B2: anti-CD47 AlivaMab antibody 5 (antibody, IgG1, V domains shown)
VH: B1 VH with V51I, G56S, K98G, R99K, T101G, F102T
VL: B1 VL with F87Y, L96R, G100Q
B3: anti-CD47 AlivaMab antibody 144 (antibody, IgG1, V domains shown)
VH: B1 VH with V51I, G56T, T101E
VL: B1 VL with V15E, S31R, F87Y
B4: anti-CD47 AlivaMab antibody 153 (antibody, IgG1, V domains shown)
VH: B1 VH with S30N, S31Y, V51I, G56S, G100S, T101S, F102Y
VL: DIQMTQSPSAMSASVGDRVTITCRASQGISNYLAWFQQKPGKVPRRLIYAASSLQSGVPSRFSGSGSGTEFTLTISSLQPEDFATYYCLQHNSYPWTFGQGTKVEIK
B5: anti-CD47 AlivaMab antibody 151 (antibody, IgG1, V domains shown)
VH: B1 VH with V51I, G56S, G100K, T101Y
VL: DIQMTQSPSSLSASVGDRVTITCRASQGISNYLAWYQQKPGKVPKLLIYAASTLQSGVPSRFSGSGSGTDFTLTISSLQPEDVATYYCQKCNSAPFTFGPGTKVDIK
B6: anti-CD47 AlivaMab antibody 87 (antibody, IgG1, V domains shown)
VH: B1 VH with V51I, G56S, S83N, G100A, T101F, F102L
VL: B1 VL with V11L, S31N, W32Y, Y36F, L46S, S56G, R61K, F87Y, A91Y, F94Y
B7: anti-CD47 AlivaMab antibody 85 (antibody, IgG1, V domains shown)
VH: QVQLQESGPGLVKASETLSLTCTVSGGSISGYYWSWIRQPAGKGLEWIGRIYNSGSTNYNPSLKSRVTMSVDTSKNQFSLKLSSVTAADTAVYYCARQTYLDYWGQGTLVTVSS
VL: B4 VL with N31I, R45K, W96L, Q100G

Key:
[1] = target: native human CD47 expressed on the surface of the CCRF-CEM human tumor cell line (human) (UniProt Q08722); assay: flow cytometry on CCRF-CEM cells, geometric mean FL1-H
[2] = target: native human CD47 expressed on the surface of the CCRF-CEM human tumor cell line (human) (UniProt Q08722); assay: flow cytometry on CCRF-CEM cells
[3] = target: recombinant human CD47 (Novoprotein cat no. C321, lot no. 0329689) (human) (UniProt Q08722); assay: SPR

Row | Binder | binding [1] | binding [2] | binding [3]
1 | B1 | binds | binds | 
2 | B2 | binds | binds | 
3 | B3 | binds | binds | 
4 | B4 | binds | binds | 
5 | B5 | binds | binds | binds
6 | B6 | binds | binds | 
7 | B7 | binds | binds | 
